For at least one entry, the source does not settle the construct or the ends of the probe. For some assays here: Where a protein sequence is shown, tags need not be part of it.
Assays:
Experiment in all cases: activity assay
MG153-34 = conditions: primer extension gel; 3 mM MgCl2, 37 C; protein translated in vitro; protein details: N-terminal Strep; label: 5'-FAM primer; DNA:RNA hybrid
MG153-45 = system: T1, MG153-45; conditions: primer extension gel; 3 mM MgCl2, 37 C; protein translated in vitro; protein details: N-terminal Strep; label: 5'-FAM primer; DNA:RNA hybrid
T1 sequence (limits assumed): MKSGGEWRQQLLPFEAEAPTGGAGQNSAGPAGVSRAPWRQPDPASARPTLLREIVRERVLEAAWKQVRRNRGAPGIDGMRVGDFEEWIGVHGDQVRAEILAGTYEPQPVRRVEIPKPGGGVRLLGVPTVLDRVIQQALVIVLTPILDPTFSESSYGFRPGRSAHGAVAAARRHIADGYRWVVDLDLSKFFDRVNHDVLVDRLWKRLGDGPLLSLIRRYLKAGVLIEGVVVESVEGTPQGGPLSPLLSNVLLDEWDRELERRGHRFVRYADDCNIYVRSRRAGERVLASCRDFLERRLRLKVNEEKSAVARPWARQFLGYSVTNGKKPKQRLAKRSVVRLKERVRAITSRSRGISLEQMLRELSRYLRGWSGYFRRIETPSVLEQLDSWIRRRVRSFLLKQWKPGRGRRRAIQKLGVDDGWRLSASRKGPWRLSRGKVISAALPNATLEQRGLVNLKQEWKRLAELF

MG153-6 = system: T2, MG153-6; conditions: primer extension gel; higher error rate than MMLV; protein translated in vitro; protein details: N-terminal Strep; label: 5'-FAM primer; DNA:RNA hybrid
T2 sequence (limits assumed): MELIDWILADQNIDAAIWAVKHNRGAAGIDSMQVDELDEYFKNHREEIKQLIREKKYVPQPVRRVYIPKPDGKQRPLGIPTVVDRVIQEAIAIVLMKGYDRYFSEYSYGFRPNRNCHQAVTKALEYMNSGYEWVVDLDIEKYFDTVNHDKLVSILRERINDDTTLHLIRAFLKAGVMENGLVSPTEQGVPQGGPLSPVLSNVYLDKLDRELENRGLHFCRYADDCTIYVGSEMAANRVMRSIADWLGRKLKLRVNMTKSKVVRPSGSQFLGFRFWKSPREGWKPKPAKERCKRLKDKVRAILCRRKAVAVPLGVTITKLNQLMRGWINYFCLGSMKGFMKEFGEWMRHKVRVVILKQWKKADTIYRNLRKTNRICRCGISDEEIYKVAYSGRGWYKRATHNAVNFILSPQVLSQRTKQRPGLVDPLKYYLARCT

MG156-2 = system: T3, MG156-2; conditions: primer extension on general RNA; protein translated in vitro; protein details: N-terminal Strep; label: 5'-FAM primer; DNA:RNA hybrid
T3 sequence: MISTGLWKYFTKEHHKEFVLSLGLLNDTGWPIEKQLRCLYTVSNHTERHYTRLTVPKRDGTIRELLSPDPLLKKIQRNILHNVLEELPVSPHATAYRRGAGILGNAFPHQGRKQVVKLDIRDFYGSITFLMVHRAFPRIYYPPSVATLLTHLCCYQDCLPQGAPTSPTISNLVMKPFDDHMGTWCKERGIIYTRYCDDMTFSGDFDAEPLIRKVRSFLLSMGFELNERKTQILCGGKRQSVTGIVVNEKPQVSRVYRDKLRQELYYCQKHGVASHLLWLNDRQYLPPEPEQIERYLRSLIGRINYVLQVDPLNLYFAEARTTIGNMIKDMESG

MG160-2 = system: T4, MG160-2; conditions: primer extension gel and qPCR; protein translated in vitro; protein details: N-terminal Strep; label: 5'-FAM primer; DNA:RNA hybrid
T4 sequence: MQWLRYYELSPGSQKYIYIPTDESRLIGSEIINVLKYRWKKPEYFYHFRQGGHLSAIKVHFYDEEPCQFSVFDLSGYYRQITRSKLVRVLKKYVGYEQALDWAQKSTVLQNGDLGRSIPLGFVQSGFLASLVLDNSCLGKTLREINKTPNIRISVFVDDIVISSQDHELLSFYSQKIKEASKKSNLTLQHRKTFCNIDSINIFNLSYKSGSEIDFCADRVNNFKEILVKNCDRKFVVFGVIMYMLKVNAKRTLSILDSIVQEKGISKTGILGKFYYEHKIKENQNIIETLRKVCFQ

MG160-4 = system: T5, MG160-4; conditions: primer extension gel and qPCR; protein translated in vitro; protein details: N-terminal Strep; label: 5'-FAM primer; DNA:RNA hybrid
T5 sequence: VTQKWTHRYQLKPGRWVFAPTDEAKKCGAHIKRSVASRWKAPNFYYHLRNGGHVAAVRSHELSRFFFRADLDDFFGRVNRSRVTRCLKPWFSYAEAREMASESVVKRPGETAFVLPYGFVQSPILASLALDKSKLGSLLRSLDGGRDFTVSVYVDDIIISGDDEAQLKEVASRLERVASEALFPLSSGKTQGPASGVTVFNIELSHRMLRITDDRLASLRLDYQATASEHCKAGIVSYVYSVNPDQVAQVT

MG167-1 = system: T6, MG167-1; conditions: primer extension gel; protein translated in vitro; protein details: N-terminal Strep; label: 5'-FAM primer; DNA:RNA hybrid
T6 sequence (limits assumed): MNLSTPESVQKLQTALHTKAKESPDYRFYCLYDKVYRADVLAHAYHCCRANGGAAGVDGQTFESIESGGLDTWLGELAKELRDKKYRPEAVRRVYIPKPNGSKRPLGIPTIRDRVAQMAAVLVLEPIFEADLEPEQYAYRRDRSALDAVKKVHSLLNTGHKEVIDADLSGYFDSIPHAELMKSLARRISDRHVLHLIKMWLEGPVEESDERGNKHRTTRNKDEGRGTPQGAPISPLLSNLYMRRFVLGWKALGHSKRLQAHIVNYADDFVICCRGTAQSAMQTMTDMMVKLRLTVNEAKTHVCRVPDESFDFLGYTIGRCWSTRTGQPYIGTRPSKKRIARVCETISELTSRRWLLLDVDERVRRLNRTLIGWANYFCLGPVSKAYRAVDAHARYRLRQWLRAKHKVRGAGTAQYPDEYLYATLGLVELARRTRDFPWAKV

MG173-4 = system: T7, MG173-4; conditions: primer extension on general RNA; protein translated in vitro; protein details: N-terminal Strep; label: 5'-FAM primer; DNA:RNA hybrid
T7 sequence (limits assumed): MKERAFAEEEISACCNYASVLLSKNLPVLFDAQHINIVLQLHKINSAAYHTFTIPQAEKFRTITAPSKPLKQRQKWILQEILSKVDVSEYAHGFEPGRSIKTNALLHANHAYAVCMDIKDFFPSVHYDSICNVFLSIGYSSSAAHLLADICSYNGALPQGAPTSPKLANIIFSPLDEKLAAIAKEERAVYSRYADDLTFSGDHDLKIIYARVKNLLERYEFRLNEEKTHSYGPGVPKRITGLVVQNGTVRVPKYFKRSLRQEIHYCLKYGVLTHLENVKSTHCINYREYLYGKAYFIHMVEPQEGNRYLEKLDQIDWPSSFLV

Measured: activity on this sequence

GGCAAACCGCCTCTCCCCGCGCGTTGGCCGATTCATTAATGCAGCTGGCACGACAGGTTTCCCGACTGGAAAGGAGACCCGGGCAGTGAGCGCAACGGGTCTCCAATTTAAGCCAGCCCCGACACCCGCCAACACCCGCTGACGCGCCCTGACGGGCTTGTCTGCTCCCGGCATCCGCTTACAGACAAGCTGTGACCGTCTC / GAGACGGTCACAGCTTGTCTG [202-nt RNA template annealed to DNA primer]
active: all assays above

Source: patent publication US20260193623
